± gives the standard deviation of the averaged measurements. Values are relative to the signal before dosing, not to a vehicle control; the signal also falls without drug.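 Fibroblast labels denote human fibroblasts, mainly primary ones from uterus (C12385, HUF), lung (H6013), bone (Hs27A), adrenal (HADF) and skin (WS1), plus mammary HMF and breast cancer-associated Hs343T. Cancer cells are basal-like or mesenchymal-like triple-negative breast cancer lines. A hit is a response shift exceeding 3x replicate standard deviation. The tissue of the other fibroblasts is not given here.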
Test system: BT20
Test: relative JC-1 red fluorescence (viability) vs pre-drug, coculture with fibroblast (fraction); higher = more viable cancer cells
Experimental: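 JC-1 labelled TNBC cells cocultured 1:1 (1,500 cells each) with CellTrace Violet stained primary or stromal fibroblasts in 384-well plates in FluoroBrite medium, treated with one of 42 anticancer drugs at 0.1, 1, 10 or 100 uM. JC-1 red fluorescence (mitochondrial integrity in cancer cells only) was read by plate reader every 8 h for 72 h. Values are normalised to each well's pre-drug value. The stock of one drug was tenfold lower, so its dose labels may be too high.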

C[C@]12CC[C@@H]3c4ccc(O)cc4C[C@@H](CCCCCCCCC[S+]([O-])CCCC(F)(F)C(F)(F)F)[C@H]3[C@@H]1CC[C@@H]2O (stereo partly drawn) [Fulvestrant]
relative JC-1 red fluorescence
Conditions | 8 h | 16 h | 24 h | 32 h | 40 h | 48 h | 56 h | 64 h | 72 h
10 µM, coculture fibroblast: C12385 | 0.942 ± 0.031 | 0.894 ± 0.03 | 0.842 ± 0.013 | 0.789 ± 0.019 | 0.746 ± 0.023 | 0.73 ± 0.013 | 0.7 ± 0.018 | 0.689 ± 0.017 | 0.679 ± 0.022
10 µM, coculture fibroblast: H6013 | 0.807 ± 0.046 | 0.78 ± 0.11 | 0.9267 ± 0.0058 | 0.9246 ± 0.0044 | 0.895 ± 0.011 | 0.9005 ± 0.0083 | 0.8984 ± 0.0047 | 0.8853 ± 0.0023 | 0.89 ± 0.009
10 µM, coculture fibroblast: H6019 | 0.9 ± 0.013 | 0.891 ± 0.024 | 0.87 ± 0.017 | 0.829 ± 0.023 | 0.808 ± 0.022 | 0.82 ± 0.029 | 0.801 ± 0.03 | 0.797 ± 0.031 | 0.791 ± 0.014
10 µM, coculture fibroblast: H6076 | 0.886 ± 0.04 | 0.857 ± 0.046 | 0.894 ± 0.019 | 0.875 ± 0.012 | 0.837 ± 0.011 | 0.8209 ± 0.0058 | 0.7967 ± 0.0028 | 0.787 ± 0.0082 | 0.77 ± 0.015
10 µM, coculture fibroblast: H6231 | 0.777 ± 0.079 | 0.858 ± 0.018 | 0.85 ± 0.2 | 0.9131 ± 0.0024 | 0.871 ± 0.0045 | 0.8197 ± 0.0071 | 0.821 ± 0.024 | 0.817 ± 0.026 | 0.805 ± 0.02
10 µM, coculture fibroblast: HADF | 0.788 ± 0.037 | 0.832 ± 0.069 | 0.909 ± 0.075 | 0.878 ± 0.13 | 0.828 ± 0.17 | 0.906 ± 0.027 | 0.856 ± 0.085 | 0.839 ± 0.13 | 0.871 ± 0.073
10 µM, coculture fibroblast: HCFa | 0.779 ± 0.018 | 0.901 ± 0.14 | 0.873 ± 0.05 | 0.818 ± 0.098 | 0.92 ± 0.11 | 0.897 ± 0.12 | 0.871 ± 0.12 | 0.862 ± 0.098 | 0.819 ± 0.1
10 µM, coculture fibroblast: HCPF | 0.749 ± 0.067 | 0.902 ± 0.035 | 0.922 ± 0.011 | 0.8687 ± 0.001 | 0.8291 ± 0.0067 | 0.7959 ± 0.0072 | 0.777 ± 0.0084 | 0.7899 ± 0.006 | 0.765 ± 0.011
10 µM, coculture fibroblast: HHSteC | 0.912 ± 0.12 | 0.924 ± 0.097 | 0.909 ± 0.073 | 0.836 ± 0.12 | 0.943 ± 0.051 | 0.94 ± 0.052 | 0.907 ± 0.029 | 0.915 ± 0.011 | 0.8926 ± 0.0056
10 µM, coculture fibroblast: HMF | 0.902 ± 0.034 | 0.849 ± 0.17 | 0.89 ± 0.034 | 0.846 ± 0.036 | 0.812 ± 0.034 | 0.767 ± 0.03 | 0.738 ± 0.021 | 0.702 ± 0.015 | 0.6678 ± 0.0048
10 µM, coculture fibroblast: HPFa | 0.915 ± 0.091 | 0.948 ± 0.013 | 0.918 ± 0.013 | 0.87 ± 0.012 | 0.847 ± 0.014 | 0.82 ± 0.02 | 0.7954 ± 0.0023 | 0.7654 ± 0.0074 | 0.7118 ± 0.0049
10 µM, coculture fibroblast: HUF | 0.938 ± 0.039 | 0.877 ± 0.032 | 0.849 ± 0.063 | 0.795 ± 0.069 | 0.771 ± 0.084 | 0.746 ± 0.073 | 0.729 ± 0.089 | 0.722 ± 0.1 | 0.703 ± 0.095
10 µM, coculture fibroblast: Hs5 | 0.734 ± 0.013 | 0.866 ± 0.12 | 0.8896 ± 0.005 | 0.8281 ± 0.0049 | 0.7827 ± 0.0037 | 0.756 ± 0.018 | 0.732 ± 0.045 | 0.706 ± 0.048 | 0.696 ± 0.05
10 µM, coculture fibroblast: Hs27A | 0.823 ± 0.026 | 0.718 ± 0.029 | 0.9754 ± 0.0074 | 0.868 ± 0.028 | 0.847 ± 0.18 | 0.906 ± 0.087 | 0.972 ± 0.03 | 0.958 ± 0.055 | 0.923 ± 0.051
10 µM, coculture fibroblast: Hs343T | 0.78 ± 0.079 | 0.872 ± 0.11 | 0.888 ± 0.021 | 0.827 ± 0.0083 | 0.791 ± 0.013 | 0.745 ± 0.036 | 0.706 ± 0.045 | 0.703 ± 0.05 | 0.688 ± 0.057
10 µM, coculture fibroblast: WS1 | 0.916 ± 0.022 | 0.874 ± 0.015 | 0.819 ± 0.012 | 0.76 ± 0.016 | 0.711 ± 0.012 | 0.699 ± 0.017 | 0.68 ± 0.037 | 0.671 ± 0.046 | 0.678 ± 0.055
100 µM, coculture fibroblast: C12385 | 0.9874 ± 0.0053 | 0.987 ± 0.012 | 0.978 ± 0.0066 | 0.9573 ± 0.0049 | 0.938 ± 0.021 | 0.94 ± 0.015 | 0.941 ± 0.01 | 0.9452 ± 0.002 | 0.94 ± 0.011
100 µM, coculture fibroblast: H6013 | 0.93 ± 0.098 | 0.971 ± 0.034 | 0.931 ± 0.062 | 0.943 ± 0.066 | 0.914 ± 0.055 | 0.914 ± 0.055 | 0.913 ± 0.051 | 0.909 ± 0.05 | 0.888 ± 0.054
100 µM, coculture fibroblast: H6019 | 0.9391 ± 0.0054 | 0.8931 ± 0.002 | 0.8928 ± 0.0017 | 0.8443 ± 0.0067 | 0.817 ± 0.02 | 0.812 ± 0.029 | 0.797 ± 0.021 | 0.784 ± 0.031 | 0.779 ± 0.034
100 µM, coculture fibroblast: H6076 | 0.888 ± 0.026 | 0.9685 ± 0.0013 | 0.895 ± 0.021 | 0.871 ± 0.021 | 0.843 ± 0.039 | 0.828 ± 0.042 | 0.812 ± 0.054 | 0.81 ± 0.054 | 0.812 ± 0.052
100 µM, coculture fibroblast: H6231 | 0.832 ± 0.15 | 0.765 ± 0.058 | 0.777 ± 0.036 | 0.866 ± 0.085 | 0.769 ± 0.086 | 0.971 ± 0.011 | 0.9955 ± 0.0055 | 0.9813 ± 0.0046 | 0.821 ± 0.097
100 µM, coculture fibroblast: HADF | 0.839 ± 0.029 | 0.891 ± 0.055 | 0.842 ± 0.14 | 0.912 ± 0.067 | 0.927 ± 0.044 | 0.831 ± 0.17 | 0.915 ± 0.031 | 0.887 ± 0.066 | 0.899 ± 0.033
100 µM, coculture fibroblast: HCFa | 0.859 ± 0.049 | 0.84 ± 0.022 | 0.867 ± 0.14 | 0.943 ± 0.049 | 0.867 ± 0.14 | 0.909 ± 0.096 | 0.742 ± 0.058 | 0.802 ± 0.043 | 0.825 ± 0.025
100 µM, coculture fibroblast: HCPF | 0.726 ± 0.0076 | 0.779 ± 0.12 | 0.725 ± 0.0092 | 0.918 ± 0.11 | 0.88 ± 0.13 | 0.851 ± 0.16 | 0.755 ± 0.054 | 0.867 ± 0.074 | 0.894 ± 0.039
100 µM, coculture fibroblast: HHSteC | 0.972 ± 0.016 | 0.879 ± 0.098 | 0.834 ± 0.17 | 0.883 ± 0.052 | 0.89 ± 0.02 | 0.818 ± 0.13 | 0.861 ± 0.07 | 0.811 ± 0.14 | 0.803 ± 0.15
100 µM, coculture fibroblast: HMF | 0.86 ± 0.1 | 0.719 ± 0.036 | 0.942 ± 0.022 | 0.888 ± 0.041 | 0.872 ± 0.064 | 0.847 ± 0.084 | 0.848 ± 0.13 | 0.832 ± 0.13 | 0.826 ± 0.15
100 µM, coculture fibroblast: HPFa | 0.841 ± 0.12 | 0.847 ± 0.2 | 0.798 ± 0.03 | 0.874 ± 0.14 | 0.904 ± 0.13 | 0.717 ± 0.034 | 0.93 ± 0.08 | 0.871 ± 0.14 | 0.935 ± 0.015
100 µM, coculture fibroblast: HUF | 0.9836 ± 0.0025 | 0.925 ± 0.015 | 0.91 ± 0.03 | 0.884 ± 0.049 | 0.885 ± 0.04 | 0.869 ± 0.041 | 0.866 ± 0.035 | 0.864 ± 0.068 | 0.864 ± 0.06
100 µM, coculture fibroblast: Hs5 | 0.874 ± 0.095 | 0.923 ± 0.041 | 0.899 ± 0.018 | 0.871 ± 0.019 | 0.8584 ± 0.0063 | 0.843 ± 0.017 | 0.855 ± 0.036 | 0.851 ± 0.065 | 0.867 ± 0.084
100 µM, coculture fibroblast: Hs27A | 0.721 ± 0.015 | 0.815 ± 0.1 | 0.901 ± 0.018 | 0.753 ± 0.051 | 0.854 ± 0.062 | 0.845 ± 0.092 | 0.732 ± 0.046 | 0.901 ± 0.046 | 0.764 ± 0.095
100 µM, coculture fibroblast: Hs343T | 0.813 ± 0.021 | 0.861 ± 0.12 | 0.887 ± 0.053 | 0.841 ± 0.032 | 0.806 ± 0.021 | 0.773 ± 0.039 | 0.752 ± 0.048 | 0.728 ± 0.049 | 0.753 ± 0.052
100 µM, coculture fibroblast: WS1 | 0.923 ± 0.04 | 0.954 ± 0.048 | 0.938 ± 0.052 | 0.91 ± 0.054 | 0.892 ± 0.07 | 0.877 ± 0.08 | 0.856 ± 0.1 | 0.844 ± 0.13 | 0.829 ± 0.14
